# PubChem BioAssay (NCATS)
# The other results are listed elsewhere or left out. The main result of the screen is listed elsewhere. These columns were measured beside it and carry no call. Compounds called inactive in the main read-out are mostly missing here. The note in brackets gives the kind of curve behind each potency; many fits are weak.
# Test: S16 Schwann cell PMP22 intronic element beta-lactamase assay (AID 624044)
# Conditions: S16 rat Schwann cells, PMP22 element beta-lactamase FRET, 24 h; measured here: 460 nm blue channel
# Procedure, shortened: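 Rat S16 Schwann cells with beta-Lac driven by a PMP22 intronic element, compound-treated 24 h at 37 °C. LiveBLAzer FRET B/G read: 460 nm normalized to potassium clavulanate vs DMSO; 535 nm FRET as viability; concentration-effect curves classified.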
row,Compound,AC50
1,CC(C)(O/N=C(\C(=O)N[C@@H]1C(=O)N2C(C(=O)[O-])=C(C[n+]3ccccc3)CS[C@@H]12)c1csc(N)n1)C(=O)O,"10.7 µM [falling, single point]"
2,CC(=O)OC[C@H]1O[C@@H](n2ncc(=O)[nH]c2=O)[C@H](OC(C)=O)[C@@H]1OC(C)=O,"5.62 µM [falling, full curve]"
3,CC[C@@]12CCCN3CCc4c(n(c5ccccc45)C(=O)C1)[C@H]32,"6 µM [falling, partial curve, poor fit]"
4,CCCCCCCCCCCCCC[n+]1ccc(C)cc1,"15.8 µM [falling, partial curve]"
5,CCCCC[C@H](O)/C=C\[C@@H]1[C@H](O)CC(=O)[C@@H]1CCCCCCC(=O)O,"0.0301 µM [falling, full curve, poor fit]"
